PubChem BioAssay AID504764, Drosophila RNAi Screening Center, 2011

Purpose: 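Genes whose knock-down alters Notch-dependent transcription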 (primary screen)
System: Drosophila Kc167 cells
Reagents: long dsRNA against Drosophila genes
Time to read-out: about 5 days (4 days dsRNA, then 24 h after transfection)
Treatment: transfection of constitutively active membrane-tethered Notch lacking the extracellular domain, read 24 h later
Measured: 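Firefly luciferase from an E(spl)m3 reporter with active Notch, plus control-promoter and uninduced reporter wells for normalisation; unnormalised counts, duplicate wells a and b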
Scale: induced reporter light, run 1, well a and induced reporter light, run 1, well b: higher = more light from the Notch target reporter with active Notch; control promoter light, run 1, well a and control promoter light, run 1, well b: higher = more light from the viral control promoter (cell number, transfection, viability); uninduced reporter light, run 1, well a: higher = more light from the Notch target reporter without active Notch
Active means: 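Hit if the duplicate-averaged log2 ratio of induced to control-promoter light gives a plate-wise z beyond ±2, or induced to uninduced beyond ±1.8; weak-control or discordant-duplicate wells dropped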
Meaning of the calls: active = modifier hit (raised or lowered Notch signal); inactive = not a hit
In all, the deposit lists about 22,000 reagents; below is an unselected part of those that have a named target and a result. In the full data, 403 (1.9%) were called active. 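Unnormalised raw counts per well; ratio z-scores behind the hit calls and whether each hit raises or lowers signal are not deposited.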 A plus sign joins genes that one reagent is predicted to hit. No sequences are given here. The record does not give: the amount of reagent.

Gp150 [DRSC04618] showed induced reporter light, run 1, well a = 24210; induced reporter light, run 1, well b = 39805; control promoter light, run 1, well a = 54730; control promoter light, run 1, well b = 73885; uninduced reporter light, run 1, well a = 2815; inactive. After knock-down of E(spl)m5-HLH (Enhancer of split m5, helix-loop-helix) [DRSC16695], the record shows induced reporter light, run 1, well a = 1.49e5; induced reporter light, run 1, well b = 1.64e5; control promoter light, run 1, well a = 1.92e5; control promoter light, run 1, well b = 2.23e5; uninduced reporter light, run 1, well a = 12478; inactive. With knock-down of GCS1 (Glucosidase 1) [DRSC19744] the results were induced reporter light, run 1, well a = 1.65e5; induced reporter light, run 1, well b = 1.64e5; control promoter light, run 1, well a = 2.60e5; control promoter light, run 1, well b = 2.03e5; uninduced reporter light, run 1, well a = 11850; inactive. With knock-down of CG31743 + CG34313 [DRSC02781] the results were induced reporter light, run 1, well a = 2.31e5; induced reporter light, run 1, well b = 2.22e5; control promoter light, run 1, well a = 2.53e5; control promoter light, run 1, well b = 2.64e5; uninduced reporter light, run 1, well a = 16300; inactive. Silencing of CG31743 + CG34313 [DRSC02782] resulted in: induced reporter light, run 1, well a = 1.90e5; induced reporter light, run 1, well b = 1.87e5; control promoter light, run 1, well a = 1.98e5; control promoter light, run 1, well b = 2.09e5; uninduced reporter light, run 1, well a = 14900; inactive. Mlf (Myelodysplasia/myeloid leukemia factor) [DRSC07472] gave induced reporter light, run 1, well a = 85995; induced reporter light, run 1, well b = 1.01e5; control promoter light, run 1, well a = 1.55e5; control promoter light, run 1, well b = 2.17e5; uninduced reporter light, run 1, well a = 9640; inactive.

Knock-down of Polr2I (RNA polymerase II subunit I) [DRSC16832] resulted in: induced reporter light, run 1, well a = 1.34e5; induced reporter light, run 1, well b = 1.19e5; control promoter light, run 1, well a = 99755; control promoter light, run 1, well b = 1.07e5; uninduced reporter light, run 1, well a = 8920; inactive. CG2604 [DRSC12313] gave induced reporter light, run 1, well a = 1.11e5; induced reporter light, run 1, well b = 1.01e5; control promoter light, run 1, well a = 96790; control promoter light, run 1, well b = 1.03e5; uninduced reporter light, run 1, well a = 7288; inactive. For fat-spondin [DRSC07617], the entry reads induced reporter light, run 1, well a = 91155; induced reporter light, run 1, well b = 93700; control promoter light, run 1, well a = 1.61e5; control promoter light, run 1, well b = 2.05e5; uninduced reporter light, run 1, well a = 8260; inactive.

2 consecutive reagents from above:
E(spl)m5-HLH (Enhancer of split m5, helix-loop-helix) [DRSC16695] | induced reporter light, run 1, well a: 1.49e5; induced reporter light, run 1, well b: 1.64e5; control promoter light, run 1, well a: 1.92e5; control promoter light, run 1, well b: 2.23e5; uninduced reporter light, run 1, well a: 12478; outcome: inactive
GCS1 (Glucosidase 1) [DRSC19744] | induced reporter light, run 1, well a: 1.65e5; induced reporter light, run 1, well b: 1.64e5; control promoter light, run 1, well a: 2.60e5; control promoter light, run 1, well b: 2.03e5; uninduced reporter light, run 1, well a: 11850; outcome: inactive

More results follow:
For Grip91 (Gamma-tubulin ring protein 91) [DRSC20249], the values are induced reporter light, run 1, well a = 1.98e5; induced reporter light, run 1, well b = 1.96e5; control promoter light, run 1, well a = 2.40e5; control promoter light, run 1, well b = 2.73e5; uninduced reporter light, run 1, well a = 14625; inactive. After knock-down of ZnT63C (Zinc transporter 63C) [DRSC08032] the results were induced reporter light, run 1, well a = 1.97e5; induced reporter light, run 1, well b = 1.92e5; control promoter light, run 1, well a = 2.26e5; control promoter light, run 1, well b = 2.92e5; uninduced reporter light, run 1, well a = 15220; inactive. ZnT63C (Zinc transporter 63C) [DRSC08033] gave induced reporter light, run 1, well a = 2.00e5; induced reporter light, run 1, well b = 1.77e5; control promoter light, run 1, well a = 1.69e5; control promoter light, run 1, well b = 1.77e5; uninduced reporter light, run 1, well a = 15035; inactive. Depletion of ZnT63C (Zinc transporter 63C) [DRSC08519] resulted in: induced reporter light, run 1, well a = 1.70e5; induced reporter light, run 1, well b = 1.80e5; control promoter light, run 1, well a = 1.22e5; control promoter light, run 1, well b = 54685; uninduced reporter light, run 1, well a = 16920; inactive. Knock-down of ZnT63C (Zinc transporter 63C) [DRSC21989] gave: inactive.
